Source: US5232912A, “Anticoagulant peptides” (Merrell Dow Pharmaceuticals Inc., priority 1992, dated 1993)
Part of at least one peptide drawing is inferred or uncertain, most often the ends.

Target: T1, bovine thrombin (Bos taurus, UniProt P00735)
T1 construct: A bovine thrombin solution (50 ul; 0.2 pmol; Sigma); purchased Sigma
Experiment: Fibrin clot inhibition assay
Type: biochemical
Set-up: unit not given here
Settings: bovine thrombin 0.2 pmol, 10 minute incubation at 24° C., 1:10 diluted human plasma, turbidity (A405); two-fold delay of fibrin clot present at 15 minutes in the control well
Method: Human plasma was collected in EDTA (final concentration=0.1%) from a healthy volunteer who had fasted for 12 hours. The plasma was immediately sterilized by passing it through a 0.2 u filter membrane (Gelman) then aliquoted into 1 ml portions and stored at -20° C. In all assays, unsulfated Nα-acetylhirudin 45-65 was included as a control. A bovine thrombin solution (50 ul; 0.2 pmol; Sigma) was added to the wells of a 96 well microtiter plate (Falcon) containing 50 ul of a solution and a 10 minute incubation at 24° C., 100 ul of 1:10 diluted human plasma in 0.12M sodium chloride, 0.01M sodium phosphate, 0.01% sodium azide, 0.1% bovine serum albumin (pH 7.4) was added. The mixture was agitated for 20 seconds and the turbidity (A405) of the solution was measured at 5 minute intervals by an autoreader (Bio-Tek Model EL 309). Reported is the ability of a 5 uM concentration of peptide to delay two-fold the amount of fibrin clot present at 15 minutes in the control well.

Fibrin Clot Inhibition	SMILES
0.38	CC[C@H](C)[C@H](NC(=O)[C@@H]1CCCN1C(=O)[C@H](CCC(=O)O)NC(=O)[C@H](Cc1ccc(O)cc1)NC(=O)CCC(=O)O)C(=O)N1CC[C@H]1C(=O)N[C@@H](CCC(=O)O)C(=O)N[C@@H](CCC(=O)O)C(=O)N[C@@H](C)C(=O)N[C@@H](CC1CCCCC1)C(=O)N[C@H](CCC(=O)O)C(=O)O [Example 3, Suc-Tyr-Glu-Pro-Ile-Azd-Glu-Glu-Ala-Cha-D-Glu-OH]
0.51	CC[C@H](C)[C@H](NC(=O)[C@@H]1CCN1C(=O)[C@H](CCC(=O)O)NC(=O)[C@H](Cc1ccc(O)cc1)NC(=O)CCC(=O)O)C(=O)N1CCC[C@H]1C(=O)N[C@@H](CCC(=O)O)C(=O)N[C@@H](CCC(=O)O)C(=O)N[C@@H](C)C(=O)N[C@@H](CC1CCCCC1)C(=O)N[C@H](CCC(=O)O)C(=O)O [Example 4, Suc-Tyr-Glu-Azd-Ile-Pro-Glu-Glu-Ala-Cha-D-Glu-OH]
